According to article PMC8975834:
These are yes or no findings as the source states them, for the method shown. Binding seen in cells or lysates may run through a third protein. Some results given as binding are weak or reduced against the parent protein; the word gives no strength.

Amino acid sequences for entries named in this document (tags omitted). A change or cut given only in a name is not applied to a line headed by its entry.
UniProt Q05655: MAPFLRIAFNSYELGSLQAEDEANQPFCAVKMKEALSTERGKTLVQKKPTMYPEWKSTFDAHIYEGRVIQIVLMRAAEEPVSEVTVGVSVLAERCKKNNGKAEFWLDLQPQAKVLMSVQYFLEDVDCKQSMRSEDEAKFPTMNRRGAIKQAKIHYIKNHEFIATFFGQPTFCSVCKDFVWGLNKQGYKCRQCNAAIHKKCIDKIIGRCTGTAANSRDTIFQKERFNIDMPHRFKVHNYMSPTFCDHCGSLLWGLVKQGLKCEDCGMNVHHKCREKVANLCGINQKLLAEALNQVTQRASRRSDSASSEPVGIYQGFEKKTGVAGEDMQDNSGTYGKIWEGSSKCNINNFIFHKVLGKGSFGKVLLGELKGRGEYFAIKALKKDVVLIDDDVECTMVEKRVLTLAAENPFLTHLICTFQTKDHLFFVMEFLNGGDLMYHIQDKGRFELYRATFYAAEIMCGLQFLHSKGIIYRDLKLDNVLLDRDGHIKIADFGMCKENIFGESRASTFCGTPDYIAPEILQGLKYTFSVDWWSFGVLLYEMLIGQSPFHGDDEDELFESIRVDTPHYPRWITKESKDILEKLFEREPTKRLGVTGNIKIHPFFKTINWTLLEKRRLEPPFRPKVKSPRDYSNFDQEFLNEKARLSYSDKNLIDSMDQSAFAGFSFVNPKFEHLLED

Target: T1, Unc-51-like kinase 1 (ULK1) (human (endogenous in HEL, SET-2, KT-1, U937)) (UniProt O75385)
T1 sequence: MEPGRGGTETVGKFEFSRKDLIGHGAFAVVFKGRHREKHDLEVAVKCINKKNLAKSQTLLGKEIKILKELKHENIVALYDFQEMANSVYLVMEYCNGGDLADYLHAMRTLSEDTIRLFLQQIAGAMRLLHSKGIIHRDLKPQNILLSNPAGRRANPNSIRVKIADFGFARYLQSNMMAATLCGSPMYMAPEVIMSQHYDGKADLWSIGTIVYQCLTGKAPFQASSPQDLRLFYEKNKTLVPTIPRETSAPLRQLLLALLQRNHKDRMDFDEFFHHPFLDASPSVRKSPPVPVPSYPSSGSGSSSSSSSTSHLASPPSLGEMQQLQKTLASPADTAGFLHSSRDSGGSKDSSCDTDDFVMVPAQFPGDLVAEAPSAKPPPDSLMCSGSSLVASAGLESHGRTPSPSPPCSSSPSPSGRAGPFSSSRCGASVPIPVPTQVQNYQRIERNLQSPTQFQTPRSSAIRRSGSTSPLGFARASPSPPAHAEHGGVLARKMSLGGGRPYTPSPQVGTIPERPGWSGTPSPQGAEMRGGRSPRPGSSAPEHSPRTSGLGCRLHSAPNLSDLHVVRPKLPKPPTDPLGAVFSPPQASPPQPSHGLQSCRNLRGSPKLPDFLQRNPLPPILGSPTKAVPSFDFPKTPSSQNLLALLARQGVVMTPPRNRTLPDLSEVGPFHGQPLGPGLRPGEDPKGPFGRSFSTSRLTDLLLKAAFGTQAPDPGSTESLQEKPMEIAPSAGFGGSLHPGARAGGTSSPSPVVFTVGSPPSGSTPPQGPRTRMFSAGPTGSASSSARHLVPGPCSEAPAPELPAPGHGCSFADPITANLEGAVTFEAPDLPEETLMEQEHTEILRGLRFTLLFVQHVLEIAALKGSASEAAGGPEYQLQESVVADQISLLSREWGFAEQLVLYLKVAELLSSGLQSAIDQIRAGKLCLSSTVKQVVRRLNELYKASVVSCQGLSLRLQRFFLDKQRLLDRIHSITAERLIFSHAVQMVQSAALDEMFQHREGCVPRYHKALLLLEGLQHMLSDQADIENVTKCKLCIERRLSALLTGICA
Assay: co-IP; endogenous protein-ULK1 complexes precipitated from 500 ug total cell lysate with anti-ULK1 (D8H5) antibody and protein G Sepharose, overnight at 4 °C; NP-40 buffer (20 mM Hepes pH 7.4, 180 mM KCl, 0.2 mM EGTA, 10% glycerol, 0.1% NP-40); cells untreated or treated with IFNα or IFNβ (10^4 IU/mL) for 10 min; immunoblot

binding: binds
Substance: protein kinase C-delta (PKCδ) (from UniProt Q05655 1-676)
